Laboratory results from the supplement of paper PMC11006884.
What follows is the remainder of the data, with few or none of the targets with a hit. The data scatter; read single values as rough. The list shows a part of the results, in another mix than the full data.

The chains behind the UniProt entries cited, without tags or fusion partners. Where a name states a change or a piece, a line headed by the entry shows the natural chain unless it says otherwise.
UniProt Q9UBB4: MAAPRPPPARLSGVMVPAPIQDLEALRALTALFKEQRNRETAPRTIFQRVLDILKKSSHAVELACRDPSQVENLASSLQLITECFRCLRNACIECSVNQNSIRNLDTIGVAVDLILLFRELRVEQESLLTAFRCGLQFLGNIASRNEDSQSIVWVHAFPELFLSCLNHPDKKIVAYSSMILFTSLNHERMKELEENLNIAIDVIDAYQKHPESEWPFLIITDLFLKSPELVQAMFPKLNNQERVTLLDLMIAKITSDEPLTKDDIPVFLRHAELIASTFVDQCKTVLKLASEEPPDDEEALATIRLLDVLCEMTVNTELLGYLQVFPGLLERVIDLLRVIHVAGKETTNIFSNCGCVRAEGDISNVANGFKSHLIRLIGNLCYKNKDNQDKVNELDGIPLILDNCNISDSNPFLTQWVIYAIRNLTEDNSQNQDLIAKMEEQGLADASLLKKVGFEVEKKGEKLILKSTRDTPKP
UniProt Q9NVH0: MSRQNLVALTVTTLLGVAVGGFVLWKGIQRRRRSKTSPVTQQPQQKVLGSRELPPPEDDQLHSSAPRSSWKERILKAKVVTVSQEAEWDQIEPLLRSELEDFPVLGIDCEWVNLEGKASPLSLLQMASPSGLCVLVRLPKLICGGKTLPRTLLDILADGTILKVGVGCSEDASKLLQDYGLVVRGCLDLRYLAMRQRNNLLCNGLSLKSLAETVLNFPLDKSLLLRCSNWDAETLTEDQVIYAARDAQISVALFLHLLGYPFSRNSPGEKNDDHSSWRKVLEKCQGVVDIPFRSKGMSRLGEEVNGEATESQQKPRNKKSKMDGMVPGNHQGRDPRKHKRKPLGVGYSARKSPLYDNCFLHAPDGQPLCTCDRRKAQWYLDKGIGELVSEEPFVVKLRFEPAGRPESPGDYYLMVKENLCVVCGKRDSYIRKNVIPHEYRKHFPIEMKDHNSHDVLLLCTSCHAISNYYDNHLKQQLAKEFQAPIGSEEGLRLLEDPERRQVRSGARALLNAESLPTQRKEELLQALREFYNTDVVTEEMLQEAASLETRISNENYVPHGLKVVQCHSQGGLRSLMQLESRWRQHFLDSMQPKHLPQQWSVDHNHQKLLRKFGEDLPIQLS
UniProt Q9NX14, whole entry: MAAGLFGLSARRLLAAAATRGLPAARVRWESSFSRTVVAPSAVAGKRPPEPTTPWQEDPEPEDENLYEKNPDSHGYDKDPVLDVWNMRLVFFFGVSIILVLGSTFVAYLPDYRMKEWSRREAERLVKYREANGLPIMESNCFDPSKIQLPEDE
UniProt Q9NX40: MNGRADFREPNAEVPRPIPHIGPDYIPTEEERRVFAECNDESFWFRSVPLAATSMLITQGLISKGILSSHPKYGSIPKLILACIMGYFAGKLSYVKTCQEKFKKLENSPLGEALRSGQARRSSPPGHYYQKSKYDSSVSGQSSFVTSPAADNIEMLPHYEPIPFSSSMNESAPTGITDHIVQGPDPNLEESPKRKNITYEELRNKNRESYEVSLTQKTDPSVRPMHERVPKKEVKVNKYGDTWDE
UniProt Q9NZB2: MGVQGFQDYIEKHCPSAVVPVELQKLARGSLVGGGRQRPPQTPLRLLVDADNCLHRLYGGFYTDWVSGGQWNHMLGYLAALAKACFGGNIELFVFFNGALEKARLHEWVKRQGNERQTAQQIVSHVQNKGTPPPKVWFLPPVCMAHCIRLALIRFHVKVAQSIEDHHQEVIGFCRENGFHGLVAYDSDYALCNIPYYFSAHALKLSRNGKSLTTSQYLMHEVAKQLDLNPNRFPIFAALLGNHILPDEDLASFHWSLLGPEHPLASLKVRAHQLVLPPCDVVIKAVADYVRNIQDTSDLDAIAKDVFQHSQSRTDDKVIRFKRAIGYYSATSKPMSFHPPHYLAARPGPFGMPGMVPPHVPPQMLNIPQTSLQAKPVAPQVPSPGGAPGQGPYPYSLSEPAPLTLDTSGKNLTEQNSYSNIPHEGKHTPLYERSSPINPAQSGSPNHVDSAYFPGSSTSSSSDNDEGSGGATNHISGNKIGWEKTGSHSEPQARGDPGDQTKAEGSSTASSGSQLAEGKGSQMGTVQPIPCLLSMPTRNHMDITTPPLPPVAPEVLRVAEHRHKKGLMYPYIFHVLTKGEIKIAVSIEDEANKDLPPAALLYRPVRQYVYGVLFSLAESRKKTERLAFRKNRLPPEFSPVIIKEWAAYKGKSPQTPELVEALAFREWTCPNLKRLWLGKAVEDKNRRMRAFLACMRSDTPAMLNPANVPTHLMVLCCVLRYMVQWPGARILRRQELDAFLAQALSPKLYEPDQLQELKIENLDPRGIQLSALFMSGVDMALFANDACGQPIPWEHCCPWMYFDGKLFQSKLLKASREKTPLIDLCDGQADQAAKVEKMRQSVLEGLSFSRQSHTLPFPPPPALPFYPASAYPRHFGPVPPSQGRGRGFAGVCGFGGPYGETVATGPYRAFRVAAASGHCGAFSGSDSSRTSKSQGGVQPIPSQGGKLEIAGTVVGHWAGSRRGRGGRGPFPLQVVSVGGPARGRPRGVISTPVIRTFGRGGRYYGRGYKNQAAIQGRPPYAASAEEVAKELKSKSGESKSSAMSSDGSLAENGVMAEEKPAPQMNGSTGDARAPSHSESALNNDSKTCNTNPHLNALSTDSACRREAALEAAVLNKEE
UniProt Q9NUU6: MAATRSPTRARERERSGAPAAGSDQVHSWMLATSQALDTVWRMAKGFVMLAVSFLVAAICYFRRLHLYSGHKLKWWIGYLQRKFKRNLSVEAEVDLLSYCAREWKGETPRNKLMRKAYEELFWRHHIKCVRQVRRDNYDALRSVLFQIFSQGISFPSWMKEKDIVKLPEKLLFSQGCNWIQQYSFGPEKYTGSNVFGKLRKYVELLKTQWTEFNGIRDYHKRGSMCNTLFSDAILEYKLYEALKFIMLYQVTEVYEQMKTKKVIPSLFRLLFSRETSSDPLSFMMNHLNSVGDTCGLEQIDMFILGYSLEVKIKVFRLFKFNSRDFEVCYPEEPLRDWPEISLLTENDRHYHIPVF
UniProt Q9NV31: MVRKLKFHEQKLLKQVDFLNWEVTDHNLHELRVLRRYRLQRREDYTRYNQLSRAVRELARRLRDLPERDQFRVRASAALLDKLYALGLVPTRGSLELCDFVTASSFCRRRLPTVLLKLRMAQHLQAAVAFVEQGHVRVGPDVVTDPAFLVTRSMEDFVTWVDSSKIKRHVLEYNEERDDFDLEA
UniProt Q9P266: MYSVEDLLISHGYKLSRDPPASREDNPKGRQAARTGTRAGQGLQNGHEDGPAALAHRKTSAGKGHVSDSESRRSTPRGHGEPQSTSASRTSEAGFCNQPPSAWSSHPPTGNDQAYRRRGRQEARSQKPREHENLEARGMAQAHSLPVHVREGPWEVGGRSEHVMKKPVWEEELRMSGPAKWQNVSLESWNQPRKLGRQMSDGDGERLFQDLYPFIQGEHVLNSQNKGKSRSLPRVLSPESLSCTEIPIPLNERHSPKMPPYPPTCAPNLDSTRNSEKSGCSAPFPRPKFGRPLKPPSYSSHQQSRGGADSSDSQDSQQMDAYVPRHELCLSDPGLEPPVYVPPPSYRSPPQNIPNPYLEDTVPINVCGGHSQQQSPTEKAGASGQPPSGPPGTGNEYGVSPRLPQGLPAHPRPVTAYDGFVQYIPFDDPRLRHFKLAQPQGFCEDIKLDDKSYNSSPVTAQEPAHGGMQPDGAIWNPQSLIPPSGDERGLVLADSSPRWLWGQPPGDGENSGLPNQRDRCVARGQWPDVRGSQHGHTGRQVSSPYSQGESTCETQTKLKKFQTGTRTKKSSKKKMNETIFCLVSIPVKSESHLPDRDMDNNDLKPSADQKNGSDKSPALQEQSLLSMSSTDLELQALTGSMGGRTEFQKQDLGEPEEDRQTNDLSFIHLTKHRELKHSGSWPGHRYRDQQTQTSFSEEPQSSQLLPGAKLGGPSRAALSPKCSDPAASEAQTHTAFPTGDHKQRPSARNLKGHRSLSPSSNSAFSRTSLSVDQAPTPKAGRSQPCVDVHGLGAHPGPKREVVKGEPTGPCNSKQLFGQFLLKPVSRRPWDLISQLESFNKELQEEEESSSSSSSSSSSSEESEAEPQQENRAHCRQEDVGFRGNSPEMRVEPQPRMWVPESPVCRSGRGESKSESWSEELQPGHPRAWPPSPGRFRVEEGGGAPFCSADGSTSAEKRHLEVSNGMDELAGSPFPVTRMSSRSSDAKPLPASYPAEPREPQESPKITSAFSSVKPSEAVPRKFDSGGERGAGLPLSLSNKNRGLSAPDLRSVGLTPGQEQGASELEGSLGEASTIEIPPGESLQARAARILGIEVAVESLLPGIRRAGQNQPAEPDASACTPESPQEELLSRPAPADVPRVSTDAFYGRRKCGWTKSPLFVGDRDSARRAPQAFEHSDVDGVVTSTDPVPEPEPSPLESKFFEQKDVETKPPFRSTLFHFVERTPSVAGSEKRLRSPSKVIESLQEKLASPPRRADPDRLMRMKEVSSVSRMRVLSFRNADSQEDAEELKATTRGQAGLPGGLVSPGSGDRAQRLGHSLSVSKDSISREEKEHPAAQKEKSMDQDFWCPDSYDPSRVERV
UniProt Q9UBB6: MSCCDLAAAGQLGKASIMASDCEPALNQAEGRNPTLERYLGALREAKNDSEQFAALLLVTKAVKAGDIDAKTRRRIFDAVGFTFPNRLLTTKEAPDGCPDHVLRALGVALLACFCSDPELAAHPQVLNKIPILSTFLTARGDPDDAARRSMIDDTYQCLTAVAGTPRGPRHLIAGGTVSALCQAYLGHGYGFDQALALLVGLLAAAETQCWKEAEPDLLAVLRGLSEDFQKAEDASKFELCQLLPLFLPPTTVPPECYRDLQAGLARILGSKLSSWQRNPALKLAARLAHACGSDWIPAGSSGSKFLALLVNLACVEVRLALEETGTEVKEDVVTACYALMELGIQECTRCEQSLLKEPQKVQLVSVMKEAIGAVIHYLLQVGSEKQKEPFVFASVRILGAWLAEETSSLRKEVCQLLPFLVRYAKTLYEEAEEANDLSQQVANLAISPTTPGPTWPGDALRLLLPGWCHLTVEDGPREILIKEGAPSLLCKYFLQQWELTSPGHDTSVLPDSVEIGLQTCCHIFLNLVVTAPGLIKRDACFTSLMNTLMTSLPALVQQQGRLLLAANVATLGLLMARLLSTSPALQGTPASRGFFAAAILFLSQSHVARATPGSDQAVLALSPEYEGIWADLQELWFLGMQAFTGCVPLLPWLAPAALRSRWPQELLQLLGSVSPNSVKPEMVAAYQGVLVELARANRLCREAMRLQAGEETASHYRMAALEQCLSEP
UniProt Q9NVI1: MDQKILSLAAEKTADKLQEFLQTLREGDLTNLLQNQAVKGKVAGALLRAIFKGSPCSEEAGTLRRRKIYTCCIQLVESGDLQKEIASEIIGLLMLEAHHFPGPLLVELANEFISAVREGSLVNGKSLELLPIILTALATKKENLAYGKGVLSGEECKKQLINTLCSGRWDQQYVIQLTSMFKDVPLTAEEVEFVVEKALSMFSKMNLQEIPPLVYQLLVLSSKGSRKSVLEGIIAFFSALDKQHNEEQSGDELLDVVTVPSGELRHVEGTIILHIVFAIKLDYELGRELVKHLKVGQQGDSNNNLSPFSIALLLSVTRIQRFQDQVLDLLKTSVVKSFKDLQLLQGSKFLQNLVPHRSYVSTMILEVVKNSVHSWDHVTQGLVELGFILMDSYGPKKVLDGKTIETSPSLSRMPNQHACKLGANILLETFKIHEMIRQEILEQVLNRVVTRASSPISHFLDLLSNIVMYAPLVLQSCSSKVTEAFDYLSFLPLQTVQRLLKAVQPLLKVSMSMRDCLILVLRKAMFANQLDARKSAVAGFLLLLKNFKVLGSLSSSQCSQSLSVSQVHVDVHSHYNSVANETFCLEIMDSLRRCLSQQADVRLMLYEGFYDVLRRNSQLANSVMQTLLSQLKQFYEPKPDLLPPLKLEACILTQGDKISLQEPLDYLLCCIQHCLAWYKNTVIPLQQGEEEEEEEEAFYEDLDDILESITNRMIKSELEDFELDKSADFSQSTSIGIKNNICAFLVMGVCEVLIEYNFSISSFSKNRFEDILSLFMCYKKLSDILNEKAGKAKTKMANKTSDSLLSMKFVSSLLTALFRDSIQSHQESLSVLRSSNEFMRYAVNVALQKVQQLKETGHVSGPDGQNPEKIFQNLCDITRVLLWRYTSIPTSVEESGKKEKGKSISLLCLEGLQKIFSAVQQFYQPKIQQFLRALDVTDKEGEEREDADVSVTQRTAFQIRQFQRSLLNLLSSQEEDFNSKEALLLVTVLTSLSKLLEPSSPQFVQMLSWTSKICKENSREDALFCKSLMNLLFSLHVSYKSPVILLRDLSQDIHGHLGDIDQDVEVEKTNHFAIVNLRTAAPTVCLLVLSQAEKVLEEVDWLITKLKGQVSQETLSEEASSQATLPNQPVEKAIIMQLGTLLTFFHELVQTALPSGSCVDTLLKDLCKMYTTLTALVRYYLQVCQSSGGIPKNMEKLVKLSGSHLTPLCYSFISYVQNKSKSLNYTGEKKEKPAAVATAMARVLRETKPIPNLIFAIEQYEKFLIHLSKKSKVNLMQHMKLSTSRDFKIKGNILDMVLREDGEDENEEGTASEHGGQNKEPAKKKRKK

The targets below were run with COC(=O)/C=C/c1ccccc1 [methyl cinnamate] (assay: log2 ratio of iodoacetamide-alkyne labeling of the cysteine site, DMSO over compound (competition); higher = stronger covalent engagement of the cysteine by the compound, active = 1 or more). Settings: 500 µM; treatment time 1 h; system: HEK293T cell lysate.
Method in brief: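 Reporter intensities give each cysteine's log2 competition ratio as the mean of control channels over the mean of compound channels. The samples were HEK293T lysate (2 mg/mL) given vehicle or electrophile (500 µM, 1 h, ambient temperature), then iodoacetamide alkyne (1 h), followed by click coupling to sCIP-TMT reagents, pooling, trypsin digestion overnight at 37 °C, streptavidin enrichment, acid elution, Orbitrap Eclipse LC-MS/MS with FAIMS and FragPipe quantification. Duplicate channels and three replicates were run, and cysteines quantified in only one replicate were discarded.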

| Target | log2 ratio of iodoacetamide-alkyne labeling |
| --- | --- |
| ANKIB1 C662 (UniProt Q9P2G1) | inactive: 0.225 |
| MED17 C241 (UniProt Q9NVC6) | inactive: 0.0537 |
| ATXN10 C356 (UniProt Q9UBB4) | inactive: 0.437 |
| UniProt Q9NVH0_C227 | inactive: -0.263 |
| ALKBH4 C204 (UniProt Q9NXW9) | inactive: 0.0209 |
| ANKFY1 C675 (UniProt Q9P2R3) | inactive: 0.054 |
| SMPD4 C614 (UniProt Q9NXE4) | inactive: -0.29 |
| CGGBP1 C167 (UniProt Q9UFW8) | inactive: 0.471 |
| NDUFB11 C141 (UniProt Q9NX14) | inactive: -0.0887 |
| OCIAD1 C38 (UniProt Q9NX40) | inactive: -0.0122 |
| ATXN10 C283 (UniProt Q9UBB4) | inactive: 0.127 |
| TJP2 C601 (UniProt Q9UDY2) | inactive: 0.0936 |
| ATXN10 C354 (UniProt Q9UBB4) | inactive: 0.437 |
| RBM28 C378 (UniProt Q9NW13) | inactive: 0.288 |
| NHP2 C18 (UniProt Q9NX24) | inactive: 0.319 |
| FAM120A C892 (UniProt Q9NZB2) | inactive: 0.662 |
| RNF181 C10 (UniProt Q9P0P0) | inactive: 0.144 |
| FAM105A C177 (UniProt Q9NUU6) | inactive: 0.163 |
| UniProt Q9NWY4_C152 | inactive: 0.213 |

Not a retest: an excerpt of the list.

| Target | log2 ratio of iodoacetamide-alkyne labeling |
| --- | --- |
| RBM28 C378 (UniProt Q9NW13) | inactive: 0.288 |
| NHP2 C18 (UniProt Q9NX24) | inactive: 0.319 |
| FAM120A C892 (UniProt Q9NZB2) | inactive: 0.662 |

Remaining list, next part:

| Target | log2 ratio of iodoacetamide-alkyne labeling |
| --- | --- |
| RIC8B C373 (UniProt Q9NVN3) | inactive: -0.000753 |
| TRMT1 C86 (UniProt Q9NXH9) | inactive: 0.123 |
| LARS C573 (UniProt Q9P2J5) | inactive: 0.117 |
| UniProt Q9NW64_C84 | inactive: -0.297 |
| IMP3 C107 (UniProt Q9NV31) | inactive: 0.172 |
| UniProt Q9NVA2_C268 | inactive: 0.0897 |
| CPSF2 C577 (UniProt Q9P2I0) | inactive: 0.00113 |
| UniProt Q9P266_C243 | inactive: 0.201 |
| UniProt Q9P289_C392 | inactive: 0.252 |
| BCLAF1 C242 (UniProt Q9NYF8) | inactive: -0.053 |
| NCDN C158 (UniProt Q9UBB6) | inactive: -0.0542 |
| FASTKD2 C163 (UniProt Q9NYY8) | inactive: 0.02 |
| FANCI C56 (UniProt Q9NVI1) | inactive: 0.0916 |
| CTTNBP2NL C312 (UniProt Q9P2B4) | inactive: 0.0612 |
| ASF1B C172 (UniProt Q9NVP2) | inactive: 0.387 |
| FANCI C1209 (UniProt Q9NVI1) | inactive: -0.0569 |
| ADD3 C73 (UniProt Q9UEY8) | inactive: 0.227 |
| LIMD1 C148 (UniProt Q9UGP4) | inactive: 0.189 |
